PubChem BioAssay AID1259254 – NCATS | 2017
This is an unselected part of about 59,000 reagents tested. In the full data, about 1,550 (2.6%) are marked active. 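G2 share is only a proxy for re-replication; each gene was hit by three separate siRNAs, and active genes were retested.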 Raw values are not corrected between plates. A number with no mark means an inactive call. Not given: the amount of reagent.

Test: 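Finding genes that stop cells copying their DNA twice in one cycle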 (primary screen)
System: human HCT116 colorectal cancer cells
Knock-down reagent: single siRNA against human genes
Timing: 3 days
Measurement: 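Imaged Hoechst DNA stain sorts each cell into a cycle phase by DNA amount; per plate, G2 fraction set to 0% for non-targeting and 100% for GMNN siRNA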
Direction: G2 robust z-score and G2 cells, % of GMNN control: higher = more G2 cells, more excess DNA replication; raw share of cells in G2: higher = larger share of cells with G2 DNA content
Rule for the call: 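An siRNA counts as active if its G2 robust z-score lies at least 5 MADs above the screen median; here such calls match roughly 38% of GMNN control or more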

no.	gene	PubChem SID	G2 robust z-score	G2 cells, % of GMNN control	raw share of cells in G2 (%)
1	HAS2 (GeneID 3037)	SID160774852	1.41	12.9	9.74
2	HAS2 (GeneID 3037)	SID160774853	-0.597	-1.23	5.22
3	HAS2 (GeneID 3037)	SID160774854	-0.203	1.54	4.77
4	SEC23B (GeneID 10483)	SID160728542	3.55	28	17.5
5	SEC23B (GeneID 10483)	SID160728543	-0.644	-1.56	5.02
6	SEC23B (GeneID 10483)	SID160728544	-0.446	-0.172	3.79
7	SKIC8 (GeneID 80349)	SID160734987	0.775	8.42	4.68
8	SKIC8 (GeneID 80349)	SID160750444	4.9	37.5	20
9	SKIC8 (GeneID 80349)	SID160750445	-0.0941	2.31	5.31
10	GPR142 (GeneID 350383)	SID160765124	2.32	19.3	11.6
11	GPR142 (GeneID 350383)	SID160765125	0.148	4.01	6.21
12	GPR142 (GeneID 350383)	SID160765126	-0.0614	2.54	4.99
13	PLEKHH1 (GeneID 57475)	SID160746055	-0.614	-1.35	3.81
14	PLEKHH1 (GeneID 57475)	SID160746057	0.69	7.82	8.2
15	PLEKHH1 (GeneID 57475)	SID160746058	-0.532	-0.774	2.78
16	LHPP (GeneID 64077)	SID160747400	0.858	9.01	7.72
17	LHPP (GeneID 64077)	SID160747401	-1.2	-5.46	2.66
18	LHPP (GeneID 64077)	SID160747403	-0.338	0.59	3.67
19	ADRB1 (GeneID 153)	SID160715022	-0.128	2.06	6.58
20	ADRB1 (GeneID 153)	SID160715033	-0.416	0.0379	4.53
21	ADRB1 (GeneID 153)	SID160715043	-0.00355	2.94	4.17
22	PF4V1 (GeneID 5197)	SID160714130	0.963	9.74	9.12
23	PF4V1 (GeneID 5197)	SID160714131	1.3	12.1	9
24	PF4V1 (GeneID 5197)	SID160714132	-0.558	-0.961	3.01

The list goes on (3 carried over from the part before).
no.	gene	PubChem SID	G2 robust z-score	G2 cells, % of GMNN control	raw share of cells in G2 (%)
22	PF4V1 (GeneID 5197)	SID160714130	0.963	9.74	9.12
23	PF4V1 (GeneID 5197)	SID160714131	1.3	12.1	9
24	PF4V1 (GeneID 5197)	SID160714132	-0.558	-0.961	3.01
25	LRRC37A3 (GeneID 374819)	SID160765311	0.777	8.43	6.88
26	LRRC37A3 (GeneID 374819)	SID160765312	2.55	20.9	12.4
27	LRRC37A3 (GeneID 374819)	SID160765313	-0.873	-3.18	2.91
28	ANXA3 (GeneID 306)	SID160717782	-0.401	0.145	4.77
29	ANXA3 (GeneID 306)	SID160717792	-0.0777	2.42	5.94
30	ANXA3 (GeneID 306)	SID160717802	0.907	9.35	7.47
31	USP54 (GeneID 159195)	SID160732596	1.22	11.5	6.41
32	USP54 (GeneID 159195)	SID160759729	0.777	8.43	6.62
33	USP54 (GeneID 159195)	SID160759730	0.491	6.42	5.11
34	HCG9 (GeneID 10255)	SID160727763	-0.272	1.06	5.81
35	HCG9 (GeneID 10255)	SID160727774	1.58	14.1	9.81
36	HCG9 (GeneID 10255)	SID160732269	7.66 (active)	56.9	24.1
37	TMEM201 (GeneID 199953)	SID160724919	-0.688	-1.87	2.17
38	TMEM201 (GeneID 199953)	SID160760772	-0.0572	2.56	4.52
39	TMEM201 (GeneID 199953)	SID160760773	0.612	7.27	5.4
40	YJU2 (GeneID 55702)	SID160744128	-0.469	-0.331	4.4
41	YJU2 (GeneID 55702)	SID160744129	0.0973	3.65	5.65
42	YJU2 (GeneID 55702)	SID160744130	-0.655	-1.64	2.61
43	PLEKHB1 (GeneID 58473)	SID160733686	-0.25	1.21	3.41
44	PLEKHB1 (GeneID 58473)	SID160746801	-0.706	-2	3.56
45	PLEKHB1 (GeneID 58473)	SID160746802	1.1	10.7	9.59
46	APOBEC3D (GeneID 140564)	SID160724825	0.132	3.9	6.34
47	APOBEC3D (GeneID 140564)	SID160757789	0.0434	3.27	5.9
48	APOBEC3D (GeneID 140564)	SID160757790	-0.969	-3.85	4.12
